From PMC6858314
Results are given in words; binding and its absence hold for the method and conditions named. For some of these results: Binding seen in cells or lysates may run through a third protein. Some entries that bind do so weakly or less than the wild type.

Sequences of proteins named here, by UniProt entry; tags and fusion partners are left off. Residues count along the entry.
UniProt P25445, residues 26-335: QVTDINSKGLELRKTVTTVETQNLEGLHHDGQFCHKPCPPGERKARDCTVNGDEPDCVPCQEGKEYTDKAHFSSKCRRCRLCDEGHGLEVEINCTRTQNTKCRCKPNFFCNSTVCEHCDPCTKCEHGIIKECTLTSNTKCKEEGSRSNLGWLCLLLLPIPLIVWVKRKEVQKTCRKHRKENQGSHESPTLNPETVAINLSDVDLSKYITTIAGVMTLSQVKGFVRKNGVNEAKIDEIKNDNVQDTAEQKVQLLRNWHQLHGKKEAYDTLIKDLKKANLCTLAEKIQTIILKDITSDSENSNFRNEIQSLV
UniProt P17677: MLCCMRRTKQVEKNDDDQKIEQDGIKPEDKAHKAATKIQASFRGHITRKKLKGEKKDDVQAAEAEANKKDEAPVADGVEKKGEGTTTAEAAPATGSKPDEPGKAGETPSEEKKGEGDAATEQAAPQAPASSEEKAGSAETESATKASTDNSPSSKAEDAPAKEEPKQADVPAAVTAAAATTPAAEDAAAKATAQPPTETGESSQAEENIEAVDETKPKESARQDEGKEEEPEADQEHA
UniProt Q9NPH3, residues 21-570: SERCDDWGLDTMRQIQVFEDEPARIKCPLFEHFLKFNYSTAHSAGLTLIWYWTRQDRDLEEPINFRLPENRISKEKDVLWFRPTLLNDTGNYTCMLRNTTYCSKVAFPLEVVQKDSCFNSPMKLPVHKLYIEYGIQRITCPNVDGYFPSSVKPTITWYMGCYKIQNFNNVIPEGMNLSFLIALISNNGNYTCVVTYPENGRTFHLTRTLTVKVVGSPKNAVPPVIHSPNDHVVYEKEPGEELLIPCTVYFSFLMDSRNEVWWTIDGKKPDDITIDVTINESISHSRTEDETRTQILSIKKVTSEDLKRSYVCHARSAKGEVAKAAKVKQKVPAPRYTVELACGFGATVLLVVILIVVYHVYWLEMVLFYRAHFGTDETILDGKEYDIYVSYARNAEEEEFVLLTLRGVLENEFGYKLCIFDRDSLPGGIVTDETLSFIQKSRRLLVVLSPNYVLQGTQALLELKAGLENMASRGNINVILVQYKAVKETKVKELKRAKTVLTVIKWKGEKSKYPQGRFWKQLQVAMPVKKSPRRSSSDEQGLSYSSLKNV
UniProt O60235: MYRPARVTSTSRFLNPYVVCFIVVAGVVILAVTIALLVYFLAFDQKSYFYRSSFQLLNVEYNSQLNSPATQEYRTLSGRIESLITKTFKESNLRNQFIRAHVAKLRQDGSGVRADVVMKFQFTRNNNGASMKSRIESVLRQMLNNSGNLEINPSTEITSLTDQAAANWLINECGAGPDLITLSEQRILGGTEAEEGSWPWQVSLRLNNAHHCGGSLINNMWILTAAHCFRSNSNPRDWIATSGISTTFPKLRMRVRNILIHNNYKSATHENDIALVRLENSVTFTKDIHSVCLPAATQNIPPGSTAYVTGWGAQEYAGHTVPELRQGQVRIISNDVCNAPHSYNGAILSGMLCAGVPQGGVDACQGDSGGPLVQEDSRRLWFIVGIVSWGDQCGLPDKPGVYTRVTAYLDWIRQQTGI

Assays:
[1] = biological target: Fas receptor expressed on HEK293 cells (human) (UniProt P25445); test: reverse transfection cell microarray (Retrogenix); HEK293 cells reverse transfected with expression vectors for one of 2505 human plasma membrane proteins; cells treated with 0.5 ug/ml rhOPG (Peprotech), 0.5 ug/ml anti-OPG, then Alexafluor647 anti-goat antibody; primary and secondary screens; only the binder purified
[2] = biological target: growth associated protein 43 (GAP43) expressed in HEK293 cells (human) (UniProt P17677); test: as above
[3] = biological target: T1, RANKL (TNFSF11) expressed on HEK293 cells (human) (UniProt O14788); test: as above
T1 sequence: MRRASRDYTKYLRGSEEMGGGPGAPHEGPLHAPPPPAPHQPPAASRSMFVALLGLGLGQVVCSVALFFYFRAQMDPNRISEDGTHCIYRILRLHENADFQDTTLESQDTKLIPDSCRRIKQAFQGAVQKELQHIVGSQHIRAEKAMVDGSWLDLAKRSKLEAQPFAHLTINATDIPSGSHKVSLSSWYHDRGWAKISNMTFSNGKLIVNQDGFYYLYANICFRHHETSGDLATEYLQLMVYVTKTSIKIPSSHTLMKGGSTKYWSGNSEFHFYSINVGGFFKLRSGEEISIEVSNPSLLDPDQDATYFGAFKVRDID

[4] = biological target: IL1-receptor accessory protein (IL-1RAcP) expressed on HEK293 cells (human) (UniProt Q9NPH3); test: as above
[5] = biological target: T2, syndecan-1 (SDC-1) expressed on HEK293 cells (human) (UniProt P18827); test: as above
T2 sequence: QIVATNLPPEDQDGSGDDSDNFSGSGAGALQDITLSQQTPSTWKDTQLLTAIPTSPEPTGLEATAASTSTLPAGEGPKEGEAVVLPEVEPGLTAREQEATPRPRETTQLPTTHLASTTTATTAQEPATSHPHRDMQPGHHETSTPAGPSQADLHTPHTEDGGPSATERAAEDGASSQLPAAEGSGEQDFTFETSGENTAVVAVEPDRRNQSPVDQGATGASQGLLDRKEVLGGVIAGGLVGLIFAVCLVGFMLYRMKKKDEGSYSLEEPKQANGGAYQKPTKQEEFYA

[6] = biological target: transmembrane protease, serine 11D (TMPRSS11D) expressed on HEK293 cells (human) (UniProt O60235); test: as above
[7] = biological target: Fas receptor, endogenous in human pulmonary artery smooth muscle cells (human (endogenous in PASMC)) (UniProt P25445); test: co-IP; PASMCs stimulated with rhOPG (500 ng/ml) for 30 min at 37 C, lysed; anti-Fas antibody, ProteinG sepharose beads; blot with goat polyclonal anti-OPG; only the binder purified

Measured: binding

B1: recombinant human osteoprotegerin (rhOPG, Peprotech) (protein, UniProt O00300 22-401)
chain: ETFPPKYLHYDEETSHQLLCDKCPPGTYLKQHCTAKWKTVCAPCPDHYYTDSWHTSDECLYCSPVCKELQYVKQECNRTHNRVCECKEGRYLEIEFCLKHRSCPPGFGVVQAGTPERNTVCKRCPDGFFSNETSSKAPCRKHTNCSVFGLLLTQKGNATHDNICSGNSESTQKCGIDVTLCEEAFFRFAVPTKFTPNWLSVLVDNLPGTKVNAESVERIKRQHSSQEQTFQLLKLWKHQNKDQDIVKKIIQDIDLCENSVQRHIGHANLTFEQLRSLMESLPGKKVGAEDIEKTIKACKPSDQILKLLSLWRIKNGDQDTLKGLMHALKHSKTYHFPKTVTQSLKKTIRFLHSFTMYKLYQKLFLEMIGNQVQSVKISCL
not listed: [7]
binds: all other assays above

B2: recombinant human osteoprotegerin (rhOPG) of the co-immunoprecipitation and the cell assays (protein, UniProt O00300 22-401)
chain: B1 chain
binds: [7]
